# Assay results published in PubChem BioAssay AID493014 (National Center for Advancing Translational Sciences (NCATS), 2011).
# The other results are listed elsewhere or left out. Further columns of the screen follow, without active or inactive calls. Most of these compounds were active or inconclusive in the main read-out, so they are no random draw. Potencies come from curve fits of mixed quality, noted in brackets.
# Assay: qHTS Assay to Find Inhibitors of Chronic Active B-Cell Receptor Signaling
# Conditions: ABC-DLBCL IkBa-CBG/CBR reporter, luminescence ratio (green luciferase fused to IkBa over red control in TMD8 lymphoma cells), 4 h
# Outline: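 Doxycycline induced both beetle luciferases in TMD8 lymphoma cells; IKK-driven degradation limits the IkappaBalpha-fused green signal, while red luminescence normalises for cell number and nonspecific effects. Compounds tested up to 46 uM, 4 hrs.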
# [1] = measured here: CBR red luminescence, cell number
# [2] = measured here: IkBa-CBG green luminescence
Structure (SMILES),AC50 [1],AC50 [2]
O=C(CCN1C(=O)C2C3C=CC(C3)C2C1=O)N1CCN(c2ccccc2Cl)CC1 (stereo unspecified),"6.51 µM [rising, single point]",
O=C(c1ccc2ncsc2c1)N1CCCC(C(F)(F)F)C1 (stereo unspecified),"2.31 µM [rising, full curve, poor fit]",
Nc1c(C(=O)CSc2nnc(-c3ccccc3)o2)c(=O)[nH]c(=O)n1C1CC1,"0.231 µM [rising, full curve, poor fit]",
O=C(NN=Cc1c(F)c(F)c(F)c(F)c1F)c1ccc(NS(=O)(=O)c2cccs2)cc1,"16.4 µM [falling, partial curve, poor fit]",
NS(=O)(=O)c1ccc2nc(NC(=O)Nc3ccccc3F)sc2c1,"3.55 µM [rising, partial curve, poor fit]",
FC(F)(F)C(F)(F)C(F)(F)c1nnc2ccc(N3CCOCC3)nn12,"0.184 µM [falling, full curve, poor fit]",
CCOC(=O)C(=O)NC12CC3CC(CC(C3)C1)C2,"13 µM [rising, partial curve, poor fit]",
CNC(=O)[C@@H]1C[C@H]1[C@@H](NC(=O)OCc1ccccc1)c1ccccc1,"20.6 µM [rising, single point]","20.6 µM [falling, single point]"
COc1ccc(C(=O)NC(=S)Nc2ccc(S(N)(=O)=O)cc2)cc1,"3.55 µM [rising, partial curve, poor fit]",
CC1CCCCC1NC(=O)NC(=O)COC(=O)c1cncc(Br)c1 (stereo unspecified),"18.4 µM [falling, partial curve, poor fit]",
Oc1ccc(C2=NNC(c3ccc(O)cc3)=NN2)cc1,"12.6 µM [falling, partial curve]",
O=c1[nH]n2c(=O)c3c([nH]c2c1N=Nc1cccc(Cl)c1)CCCC3,"0.651 µM [rising, full curve, poor fit]",
Cc1ccc(-n2ncc(C(=O)Nc3cc(Cl)ccc3Cl)c2C2CCNCC2)cc1,"22.4 µM [falling, single point]",
COc1ccc(C(=O)Nc2c(Cl)cc(Cl)cc2C(=O)NCCN2CCOCC2)cc1,"3.66 µM [rising, partial curve, poor fit]",
COCCCN=C1NN=C(c2cc(C)n(Cc3ccco3)c2C)CS1,"29.1 µM [rising, single point]","18.4 µM [falling, single point]"
CCC(=O)Nc1ccc(C(=O)n2ccc(C)n2)cc1,"7.94 µM [rising, partial curve]",
N/C(=N\OC(=O)COc1ccc(Br)cc1Cl)c1cccnc1,"1.3 µM [rising, full curve, poor fit]",
Cc1ccccc1NC(=O)c1ccc2ccccc2c1,"12.6 µM [falling, partial curve]",
CC(C)(C)NC(=O)C(c1ccncc1)N(Cc1cccs1)C(=O)Cn1nnc(-c2ccc(F)cc2)n1 (stereo unspecified),,"18.4 µM [rising, single point]"
CCc1ccc(NC(=O)c2ccc3nc(N)sc3c2)cc1,"10.3 µM [falling, partial curve]",
N#Cc1cccc(NC(=O)CCC2CCCC2)c1,"0.731 µM [rising, partial curve, poor fit]",

# Twelve consecutive records from above, for reference:
Structure (SMILES),AC50 [1],AC50 [2]
O=C(CCN1C(=O)C2C3C=CC(C3)C2C1=O)N1CCN(c2ccccc2Cl)CC1 (stereo unspecified),"6.51 µM [rising, single point]",
O=C(c1ccc2ncsc2c1)N1CCCC(C(F)(F)F)C1 (stereo unspecified),"2.31 µM [rising, full curve, poor fit]",
Nc1c(C(=O)CSc2nnc(-c3ccccc3)o2)c(=O)[nH]c(=O)n1C1CC1,"0.231 µM [rising, full curve, poor fit]",
O=C(NN=Cc1c(F)c(F)c(F)c(F)c1F)c1ccc(NS(=O)(=O)c2cccs2)cc1,"16.4 µM [falling, partial curve, poor fit]",
NS(=O)(=O)c1ccc2nc(NC(=O)Nc3ccccc3F)sc2c1,"3.55 µM [rising, partial curve, poor fit]",
FC(F)(F)C(F)(F)C(F)(F)c1nnc2ccc(N3CCOCC3)nn12,"0.184 µM [falling, full curve, poor fit]",
CCOC(=O)C(=O)NC12CC3CC(CC(C3)C1)C2,"13 µM [rising, partial curve, poor fit]",
CNC(=O)[C@@H]1C[C@H]1[C@@H](NC(=O)OCc1ccccc1)c1ccccc1,"20.6 µM [rising, single point]","20.6 µM [falling, single point]"
COc1ccc(C(=O)NC(=S)Nc2ccc(S(N)(=O)=O)cc2)cc1,"3.55 µM [rising, partial curve, poor fit]",
CC1CCCCC1NC(=O)NC(=O)COC(=O)c1cncc(Br)c1 (stereo unspecified),"18.4 µM [falling, partial curve, poor fit]",
Oc1ccc(C2=NNC(c3ccc(O)cc3)=NN2)cc1,"12.6 µM [falling, partial curve]",
O=c1[nH]n2c(=O)c3c([nH]c2c1N=Nc1cccc(Cl)c1)CCCC3,"0.651 µM [rising, full curve, poor fit]",

# The list continues.

Structure (SMILES),AC50 [1],AC50 [2]
C#CCOCCOCCOCCNc1nc(N2CCN(C(=O)CCCCCCCCCCNC(=O)[C@H](CCCCN)n3cc(C)nn3)CC2)nc(N2CCN(C(=O)CCCCCCCCCCNC(=O)[C@@H]([C@H](C)O)n3cc(C)nn3)CC2)n1,"29.1 µM [rising, single point]",
O=C(CSc1nc2ccccc2c(=O)[nH]1)N1CCCCC1,"2.59 µM [falling, full curve, poor fit]",
Cc1ccc(NC(=S)NC(=O)/C=C/c2ccco2)c(O)c1,"35.5 µM [falling, single point]",
CCOC(=O)c1sc(=S)n(Cc2ccccc2)c1C,"8.91 µM [rising, partial curve, poor fit]",
CCCCn1c(=N)n(CCOc2ccc(C)cc2)c2ccccc21,"18.4 µM [falling, single point]",
Cc1c(C(=O)N/N=C/c2ccc(N(C)C)cc2)[nH]c2ccc(Cl)cc12,"5.8 µM [rising, full curve]","6.51 µM [falling, partial curve, poor fit]"
O=c1cc(N2CCCCC2)c(-c2ccccc2)nn1Cc1c(Cl)cccc1Cl,"3.55 µM [rising, single point]",
Cc1cnc(C(=O)Nc2nnc(C(C)C)s2)cn1,"0.291 µM [rising, full curve, poor fit]",
CCOc1ccccc1NC(=O)CN(C)S(=O)(=O)c1cnc[nH]1,"35.5 µM [rising, single point]",
COc1ccc(/C=C/C(=O)Nc2cc(C)nn2-c2nc3ccccc3[nH]2)cc1,"2.91 µM [falling, full curve]",
O=C1CCc2cc(S(=O)(=O)NCc3ccc(F)cc3)cc3c2N1CCC3,"16.4 µM [falling, single point]",
Cc1c(C(=O)N/N=C/c2cccs2)nc2ccccn12,"18.4 µM [falling, single point]",
CC(C)c1ccc(C(=O)Nc2nnc(S(=O)(=O)N3CCOCC3)s2)cc1,"10 µM [rising, partial curve, poor fit]",
c1ccc2c(c1)nc(NCC1CCCO1)c1nnnn12 (stereo unspecified),"1.3 µM [falling, full curve, poor fit]",
O=c1[nH]c2ccccc2c2cn(-c3ccccc3)nc12,"1.26 µM [falling, full curve, poor fit]",
COC(=O)c1ccc(C)c(NC(=O)CCc2ccc(OC)c(OC)c2)c1,"11.6 µM [rising, partial curve, poor fit]",
Cc1cc(N)n2nc(C(F)(F)F)nc2n1,"14.1 µM [falling, partial curve, poor fit]",
Cc1cccc(C(=O)N2CCN(C(=O)c3cccc(C)c3)C(C)C2)c1 (stereo unspecified),"3.26 µM [falling, single point]",
CC1CCCCN1c1ncnc2ccccc12 (stereo unspecified),"29.1 µM [rising, partial curve, poor fit]",
C=CCNc1oc(-c2cccs2)nc1S(=O)(=O)c1ccccc1,"3.55 µM [falling, partial curve, poor fit]",
Cc1ccc(N(C(=O)c2ccc3c(c2)OCO3)C2C=CS(=O)(=O)C2)cc1C (stereo unspecified),"20 µM [falling, single point]",

Structure (SMILES),AC50 [1],AC50 [2]
O=C(CCCOc1ccc(Cl)cc1)Nc1ccc(N2CCOCC2)cc1,"35.5 µM [falling, single point]",
CN(CCCNC(=O)Cn1cc2c(n1)CCCC2)C1CCCCC1,"7.31 µM [rising, partial curve]",
CCC(C)N(C(=O)COC(=O)c1cc([N+](=O)[O-])ccc1N1CCOCC1)C1CCS(=O)(=O)C1 (stereo unspecified),,"18.4 µM [falling, partial curve, poor fit]"
COc1ccc(NC(=O)c2cc([N+](=O)[O-])ccc2N2CCCCC2)cc1,"1.12 µM [falling, full curve, poor fit]",
O=Cc1ccc(OCC(=O)N2CCc3ccccc32)c(Br)c1,"5.17 µM [falling, partial curve]",
Cc1nnsc1C(=O)Nc1ccc(Cl)cc1Cl,"11.2 µM [rising, partial curve]",
COc1ccccc1CNC(=O)CSc1nc(=O)[nH]c2c1CCC2,"11.2 µM [falling, partial curve, poor fit]",
N#C/C(=C\c1ccc(O)c([N+](=O)[O-])c1)c1nc2ccccc2s1,"1 µM [rising, full curve, poor fit]",
COc1ccccc1CNC(=O)CSc1ccccc1,"0.631 µM [rising, full curve, poor fit]",
COc1ccc(Cl)cc1NC(=O)c1noc(C)c1[N+](=O)[O-],"1.58 µM [falling, full curve]",
Cn1cnc2cc(NC(=O)c3cccs3)ccc21,"8.91 µM [falling, partial curve, poor fit]",
CCC1(C)Nc2ccccc2C(=O)N1O (stereo unspecified),"7.08 µM [falling, partial curve]",
COc1cccc(CNC(=O)CN2C(=O)N(c3cccc(Cl)c3)S(=O)(=O)c3ccccc32)c1OC,"6.31 µM [rising, single point]",
Cc1c(CN2CCC(CO)(CCOc3ccccc3)CC2)[nH]c2ccc(Cl)cc12,"2.51 µM [falling, full curve, poor fit]","15.8 µM [rising, single point]"
CCN1CCN(c2cc(C)c3cc(NC(=S)NCCCN4CCc5ccccc5C4)ccc3n2)CC1,"8.91 µM [falling, partial curve, poor fit]",
CCCOc1ccccc1Nc1nnc(C)c(=O)[nH]1,"25.9 µM [falling, single point]",
COc1ccc(CNC(=O)C2CCCN(S(=O)(=O)c3c(C)n[nH]c3C)C2)cc1 (stereo unspecified),"0.231 µM [falling, full curve, poor fit]",
CC(=O)N/C(=C\c1ccccc1)C(=O)OCC(=O)Nc1ccc(C)c(S(=O)(=O)N(C)C)c1,"0.731 µM [rising, full curve, poor fit]",
OC(CN1CCNCC1)Cn1c2ccccc2c2ccccc21 (stereo unspecified),"35.5 µM [falling, single point]",
CO/N=C(/CS(=O)(=O)c1ccc(C)cc1)c1ccc(OC)cc1,"7.31 µM [falling, single point]",
